Reference: PubChem BioAssay AID504805 (Drosophila RNAi Screening Center, 2011)
Only reagents picked out of a larger screen are listed. 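Phenotypes are words from visual inspection of images, not measured scores.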 A plus sign joins genes that one reagent is predicted to hit. Reagent sequences are not shown.

- Purpose: 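Genome-wide fly cell screen for factors exporting mRNA from the nucleus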 (primary screen)
- Cell system: Drosophila S2R+ cells
- Reagent: long dsRNA against Drosophila genes, 0.25 µg dsRNA per well
- Duration: 4 days
- Measured: 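Poly(A) RNA detected by in situ hybridisation with a fluorescent oligo-dT probe, nuclei stained with a DNA dye; images judged by eye, phenotype noted per replicate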

The first 7 entries, to show the layout:
target	amplicon	phenotype, replicate 1	phenotype, replicate 2
mid (midline)	DRSC02977	poly(A) RNA held back in the nucleus	
Crag	DRSC18454	poly(A) RNA held back in the nucleus	
Hrd3 (HMG-coA reductase degradation 3)	DRSC14156	poly(A) RNA held back in the nucleus	
Idgf2 (Imaginal disc growth factor 2)	DRSC03350	poly(A) RNA held back in the nucleus	
Ir7c (Ionotropic receptor 7c)	DRSC18007	poly(A) RNA held back in the nucleus	
Acbp4 (Acyl-CoA binding protein 4)	DRSC11023	poly(A) RNA held back in the nucleus	
CG5989	DRSC10565	poly(A) RNA held back in the nucleus	

The listing, repeating the preview:
target	amplicon	phenotype, replicate 1	phenotype, replicate 2
mid (midline)	DRSC02977	poly(A) RNA held back in the nucleus	
Crag	DRSC18454	poly(A) RNA held back in the nucleus	
Hrd3 (HMG-coA reductase degradation 3)	DRSC14156	poly(A) RNA held back in the nucleus	
Idgf2 (Imaginal disc growth factor 2)	DRSC03350	poly(A) RNA held back in the nucleus	
Ir7c (Ionotropic receptor 7c)	DRSC18007	poly(A) RNA held back in the nucleus	
Acbp4 (Acyl-CoA binding protein 4)	DRSC11023	poly(A) RNA held back in the nucleus	
CG5989	DRSC10565	poly(A) RNA held back in the nucleus	
Npc2a (Niemann-Pick type C-2a)	DRSC00698	poly(A) RNA held back in the nucleus	
Kebab (Kinetochore and EB1 associated basic protein)	DRSC00827	poly(A) RNA held back in the nucleus	
Sse (Separase)	DRSC09746	poly(A) RNA held back in the nucleus	
IP3K2 (Inositol 1,4,5-triphosphate kinase 2)	DRSC19747	poly(A) RNA held back in the nucleus	
Nadk1b (NAD kinase 1b)	DRSC05432	poly(A) RNA held back in the nucleus	
Gpdh3 (Glycerol-3-phosphate dehydrogenase 3)	DRSC13561	poly(A) RNA held back in the nucleus	
RpL17 (Ribosomal protein L17)	DRSC18293	poly(A) RNA held back in the nucleus	
emc (extra macrochaetae)	DRSC23238	poly(A) RNA held back in the nucleus	
CG31038	DRSC16327	poly(A) RNA held back in the nucleus	
Alg9 (ALG9, alpha-1,2-mannosyltransferase)	DRSC14407	poly(A) RNA held back in the nucleus	
Hel25E (Helicase at 25E)	DRSC03342	poly(A) RNA held back in the nucleus	poly(A) RNA held back in the nucleus
PGRP-LD + Pmi	DRSC10512	poly(A) RNA held back in the nucleus	
CG15365	DRSC23021	poly(A) RNA held back in the nucleus	
CG8191	DRSC20091	poly(A) RNA held back in the nucleus	
Cnx99A + Cnx14D	DRSC16610	poly(A) RNA held back in the nucleus	
LanA (Laminin A)	DRSC11207	poly(A) RNA held back in the nucleus	
CG31211	DRSC14953	poly(A) RNA held back in the nucleus	
CG31368	DRSC14951	poly(A) RNA held back in the nucleus	
Spx (Spliceosomal protein on the X)	DRSC18720	poly(A) RNA held back in the nucleus	
Bx42	DRSC17743	poly(A) RNA held back in the nucleus	poly(A) RNA held back in the nucleus
Hk (Hyperkinetic)	DRSC18674	poly(A) RNA held back in the nucleus	
CG6661	DRSC10687	poly(A) RNA held back in the nucleus	
Fbp2 (Fat body protein 2)	DRSC03327	poly(A) RNA held back in the nucleus	
seq (sequoia)	DRSC06863	poly(A) RNA held back in the nucleus	
CG31904 + CG13796	DRSC22161	poly(A) RNA held back in the nucleus	
luna	DRSC06663	poly(A) RNA held back in the nucleus	
iPLA2-VIA (calcium-independent phospholipase A2 VIA)	DRSC10699	poly(A) RNA held back in the nucleus	
CG7611	DRSC11840	poly(A) RNA held back in the nucleus	
CG42493	DRSC05309	poly(A) RNA held back in the nucleus	
Acsx1L (Acyl-CoA synthetase X1 L)	DRSC16014	poly(A) RNA held back in the nucleus	
CG3078	DRSC18531	poly(A) RNA held back in the nucleus	
Tis11 (Tis11 zinc finger protein)	DRSC20293	poly(A) RNA held back in the nucleus	
Ns3 (Nucleostemin 3)	DRSC18607	poly(A) RNA held back in the nucleus	
CG4849	DRSC15662	poly(A) RNA held back in the nucleus	
dup (double parked)	DRSC07088		cells look to be dying
beag	DRSC15296	poly(A) RNA held back in the nucleus	
nAChRalpha1 (nicotinic Acetylcholine Receptor alpha1)	DRSC13664	poly(A) RNA held back in the nucleus	
norpA (no receptor potential A)	DRSC18806	poly(A) RNA held back in the nucleus	
CG12912	DRSC06227	poly(A) RNA held back in the nucleus	
Culd (CUB and LDLa domain)	DRSC10262	poly(A) RNA held back in the nucleus	
MTF-1 (Metal response element-binding Transcription Factor-1)	DRSC11217	poly(A) RNA held back in the nucleus	
bora (aurora borealis)	DRSC10744	poly(A) RNA held back in the nucleus	
CG18536	DRSC06763	RNA gathered at the nuclear rim	
CycD (Cyclin D)	DRSC20233	poly(A) RNA held back in the nucleus	poly(A) RNA held back in the nucleus
CG12590	DRSC12216	poly(A) RNA held back in the nucleus	
CG5608	DRSC15841	poly(A) RNA held back in the nucleus	
CG12009	DRSC08217	poly(A) RNA held back in the nucleus	
Sh (Shaker)	DRSC19220	poly(A) RNA held back in the nucleus	
CG43347	DRSC18446	poly(A) RNA held back in the nucleus	
CG43347	DRSC22656	poly(A) RNA held back in the nucleus	
trem (trade embargo)	DRSC15575	poly(A) RNA held back in the nucleus	
Shmt (Serine hydroxymethyl transferase)	DRSC18264	poly(A) RNA held back in the nucleus	
knk (knickkopf)	DRSC15993	poly(A) RNA held back in the nucleus	
RpL13 (Ribosomal protein L13)	DRSC03416	poly(A) RNA held back in the nucleus	
Chmp1 (Charged multivesicular body protein 1)	DRSC10401	poly(A) RNA held back in the nucleus	
CG17211	DRSC02587	poly(A) RNA held back in the nucleus	
Sdr (Secreted decoy of InR)	DRSC15517	poly(A) RNA held back in the nucleus	
Ho (Heme oxygenase)	DRSC14939	poly(A) RNA held back in the nucleus	
Pp2B-14D (Protein phosphatase 2B at 14D)	DRSC20270	poly(A) RNA held back in the nucleus	
gw (gawky)	DRSC17160	poly(A) RNA held back in the nucleus	
CG2736	DRSC04314	poly(A) RNA held back in the nucleus	
CG17260	DRSC00497	poly(A) RNA held back in the nucleus	
stretch (retired record)	DRSC14543	poly(A) RNA held back in the nucleus	
CR11700 (retired record)	DRSC17794	poly(A) RNA held back in the nucleus	poly(A) RNA held back in the nucleus
jim	DRSC11889	poly(A) RNA held back in the nucleus	
